Reference: publication doi:10.1101/2025.03.01.640934
No constants are given. Whether binding was seen depends on the method and setting. Some results given as binding are weak or reduced against the parent protein; the word gives no strength.

Chains of the proteins cited; added tags and fusions are not shown. Lines headed by an entry give the natural chain unless they say otherwise; changes in a name come on top.
UniProt Q6NUN9: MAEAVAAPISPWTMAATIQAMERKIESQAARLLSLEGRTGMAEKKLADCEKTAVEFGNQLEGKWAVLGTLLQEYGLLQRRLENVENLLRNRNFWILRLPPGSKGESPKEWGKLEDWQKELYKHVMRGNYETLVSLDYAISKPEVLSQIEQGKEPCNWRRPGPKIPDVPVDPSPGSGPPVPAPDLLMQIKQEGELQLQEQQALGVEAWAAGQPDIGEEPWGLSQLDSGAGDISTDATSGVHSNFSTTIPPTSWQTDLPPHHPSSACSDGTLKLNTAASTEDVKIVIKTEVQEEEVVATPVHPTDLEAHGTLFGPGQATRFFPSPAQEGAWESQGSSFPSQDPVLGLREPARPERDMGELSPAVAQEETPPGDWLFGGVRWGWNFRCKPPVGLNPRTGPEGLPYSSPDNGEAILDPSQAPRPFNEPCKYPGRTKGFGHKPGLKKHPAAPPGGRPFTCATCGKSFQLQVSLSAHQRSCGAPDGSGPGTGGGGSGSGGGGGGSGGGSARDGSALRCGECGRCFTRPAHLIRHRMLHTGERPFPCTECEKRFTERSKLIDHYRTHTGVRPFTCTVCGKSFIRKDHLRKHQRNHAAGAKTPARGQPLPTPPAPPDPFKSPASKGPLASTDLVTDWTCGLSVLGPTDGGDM

Experiments:
[1] = molecular target: HA-tagged full-length ZNF746, wild-type (human) (UniProt Q6NUN9); assay: native gel or EMSA
[2] = molecular target: HA-tagged DK fragment of ZNF746, wild-type (human) (UniProt Q6NUN9); assay: native gel or EMSA

Row | Substance | binding [1] | binding [2]
1 | HA-tagged full-length ZNF746, wild-type (from UniProt Q6NUN9 1-644) | binds | –
2 | HA-tagged DK fragment of ZNF746, wild-type (from UniProt Q6NUN9 1-191) (domain or fragment) | – | binds
